PubChem BioAssay AID743121 | NCATS, 2013

- Aim: 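Knock-downs that sensitise breast cancer cells to camptothecin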 (primary screen)
- Cells: MDA-MB-231 cells, a human breast cancer line
- Reagents: single siRNA against human genes, 20 nM siRNA (0.8 pmol per well)
- Timing: 120 h (drug added 48 h after transfection, read 72 h later)
- Challenge: camptothecin 20 nM (about EC30) for 72 h; vehicle 0.1% DMSO in parallel plates
- Measurement: 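CellTiter-Glo ATP signal, scaled to control siRNA as percent viability; sensitisation given as log2 of untreated divided by camptothecin-treated viability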
- Direction: log2 vehicle/camptothecin viability: higher = stronger sensitisation to camptothecin; viability with camptothecin: higher = more viable cells
- Rule for the call: 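Active genes have an RSA gene-level p-value below 0.001, computed from the ratios of their separate siRNAs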
Shown is an unselected part of about 26,000 deposited reagents. Over the whole deposit, 167 (0.63%) got an active call. 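Calls are per gene from RSA p-values that are not deposited; an individual active-marked siRNA can sensitise only weakly.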 Unmarked entries are inactive. Further read-outs or replicates are left out here. Reagent sequences are not shown.

gene	PubChem SID	log2 vehicle/camptothecin viability	viability with camptothecin (% of control)
ADRA1D	SID164352533	-0.2	108
ADRA1D	SID164352535	0.772	28.9
ADRA1D	SID164352538	-0.468	67.7
ADRA1D	SID164352540	0.297	40.6
NAPSB	SID164606230	1.74	12.6
NAPSB	SID164606231	-0.387	105
NAPSB	SID164606232	-0.409	82.4
NAPSB	SID164606233	0.261	35
RGS19	SID164410072	-0.132	113
RGS19	SID164410073	-0.0963	114
RGS19	SID164410074	0.291	48.4
RGS19	SID164410075	0.305	69.7
FBXL4	SID164459393	-0.132	126
FBXL4	SID164459395	-0.368	102
FBXL4	SID164459397	-0.503	69.6
FBXL4	SID164459398	-0.266	64.8
SCNN1D	SID164387198	-0.332	82.8
SCNN1D	SID164387200	-0.0135	70.5
SCNN1D	SID164387201	-0.525	105
SCNN1D	SID164387204	0.478	46.2
COL11A2	SID164359236	0.326	33.9
COL11A2	SID164359243	-0.0513	55.9
COL11A2	SID164359247	-0.371	21.2
GP5	SID164367153	-0.26	88.1
GP5	SID164367156	0.154	81.3
GP5	SID164367157	0.573	57.6
GP5	SID164367159	-0.455	52.4
MMP23A	SID164398093	-0.575	94.8
UGGT1	SID164491507	-0.0233	87.3
UGGT1	SID164491508	-0.0161	84.9
UGGT1	SID164491511	-0.448	36.3
SQSTM1	SID164400462	-0.172	89.8
SQSTM1	SID164400463	-0.0598	23.3
SQSTM1	SID164400464	-0.0163	66.1
SQSTM1	SID164400465	-0.135	72.1
MAP3K15	SID164678956	-0.162	61.3
MAP3K15	SID164678958	-0.276	121
MAP3K15	SID164678962	-0.0332	82.7
MAP3K15	SID164678963	-0.106	104
MAP3K15	SID164678965	-0.357	82.8
MAP3K15	SID164678966	-0.412	45.3
PTPN13	SID164383910	-0.232	91
PTPN13	SID164383912	0.0189	67.3
PTPN13	SID164383913	-0.103	102
PTPN13	SID164383914	-0.306	112
FCN3	SID164398351	-0.542	119
FCN3	SID164398354	-0.582	89.2
FCN3	SID164398355	-0.462	78.1
FCN3	SID164398356	-0.165	77.1
FLT3LG	SID164365167	-0.167	60.2
FLT3LG	SID164365171	0.523	28.9
FLT3LG	SID164365173	0.262	33.7
FLT3LG	SID164365174	-0.542	68.3
ERBB2	SID164363595	-0.356	120
ERBB2	SID164363599	-0.0817	79.8
ERBB2	SID164363601	0.0601	37.9
ERBB2	SID164363602	-0.139	58.6
KIFAP3	SID164444497	-0.406	92.9
KIFAP3	SID164444500	0.177	114
KIFAP3	SID164444501	-0.445	80.6
CASQ2	SID164356665	0.17	10.5
CASQ2	SID164356666	0.0229	81.5
CASQ2	SID164356667	0.0871	33.6
CASQ2	SID164356668	-0.307	146
P4HA2	SID164400986	0.286	53.1
P4HA2	SID164400987	-0.746	27.7
P4HA2	SID164400990	-0.188	99.9
COX7A2L	SID164402165	-0.0744	103
COX7A2L	SID164402167	0.265	72.7
COX7A2L	SID164402168	-0.00622	105

9 consecutive entries from above:
gene	PubChem SID	log2 vehicle/camptothecin viability	viability with camptothecin (% of control)
GP5	SID164367153	-0.26	88.1
GP5	SID164367156	0.154	81.3
GP5	SID164367157	0.573	57.6
GP5	SID164367159	-0.455	52.4
MMP23A	SID164398093	-0.575	94.8
UGGT1	SID164491507	-0.0233	87.3
UGGT1	SID164491508	-0.0161	84.9
UGGT1	SID164491511	-0.448	36.3
SQSTM1	SID164400462	-0.172	89.8
